The whole screen tested about 390,000 compounds, of which about 610 (0.16%) were called active. Inconclusive results, whose numbers are uncertain, are shown with a selection of clear calls. The call rests on the fitted dose curve; in most records, active means well fitted inhibition curve with a large enough effect; inconclusive means small, poorly fitted or top-dose-only effect, or effect the other way, or another doubt; inactive means no such curve, though single readings can be large or run the other way. Potencies beside an inconclusive call are fits to weak or partial responses and may not hold up.
Test: Nrf2 qHTS screen for inhibitors: counterscreen for cytotoxicity
Settings: A549 ARE-Fluc cells, CellTiter-Fluor viability, 18-24 h; series mostly up to 46 µM
How it was run: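 A549 ARE-Fluc cells in 5% FBS OPTI-MEM, 5000 cells/well, rested 2 h then exposed to compounds in concentration-response for 18-24 h at 37 °C. Viability by CellTiter-Fluor fluorescence (Ex 405/Em 525) after 30 min; luciferase luminescence (BugLite, 15 min, RT) read afterwards.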
Potency means the concentration at half of the fitted maximal effect.

Structure (SMILES)	Potency
Cn1c(=O)c2[nH]c(N3CCN(c4ccccc4)CC3)nc2n(C)c1=O	inconclusive: 18.4 µM [activator, partial curve, poor fit]
S=C(Nc1ccc(Nc2ccccc2)cc1)NC1CCCCCC1	inconclusive: 29.1 µM [falling, single point]
O=C1C=C(NCc2ccccc2)c2ccccc2C1=O	inconclusive: 16.4 µM [falling, single point]
OCCCCCN=c1cc(-c2ccccc2)oc2ccc(Cl)cc12	inconclusive: 23.1 µM [falling, single point]
O=C(COC(=O)c1c[nH]c2ccccc12)NC1CCCC1	inactive
CCN(CC)c1ccc(NC(=O)CCc2c(C)nc3ncnn3c2C)c(C)c1	inactive
COc1cc(C2C(C(=O)Nc3ccccc3C)=C(C)Nc3nc(SCc4cc(C)ccc4C)nn32)ccc1O (centres undefined)	inconclusive: 16.4 µM [falling, single point]
COc1ccc(C(=O)c2c[nH]c3ccccc23)cc1	inconclusive: 16.4 µM [falling, partial curve, poor fit]
O=S(=O)(Nc1cccc2ccccc12)c1ccccc1	inactive
O=C1CC(Nc2ccc(N3CCOCC3)cc2)C(=O)N1c1cccc(C(F)(F)F)c1 (centres undefined)	inconclusive: 20.6 µM [falling, single point]
Cc1cc(C(=O)OCC(=O)N2CC(=O)Nc3ccccc32)c(C)n1-c1ccc(F)cc1	inconclusive: 20.6 µM [falling, single point]
N#Cc1c(N2CCN(C(=O)c3ccccc3)CC2)nc(-c2ccccc2)c2c1CCCC2	inconclusive: 29.1 µM [falling, single point]
Cc1cc(-c2csc3nc[nH]c(=S)c23)cc(C)c1C	inconclusive: 29.1 µM [falling, single point]
O=C1N=C(N2CCOCC2)S/C1=C/c1cc2c(cc1[N+](=O)[O-])OCO2	inconclusive: 23.1 µM [falling, partial curve, poor fit]
Cc1ccc(NC(=O)c2cnc3cc(C)ccn3c2=O)c(C)c1	inactive
Cc1ccc(NC(=O)C2CC(=O)N(c3ccc4c(c3)OCCO4)C2)cc1S(=O)(=O)N1CCCCCC1 (centres undefined)	inconclusive: 11.6 µM [falling, partial curve]
CC12C=CC(=O)C=C1CCC1C2C(=O)CC2(C)C1CCC2(O)C(=O)CO (centres undefined)	inactive
CCCCc1nc(Cl)c(C#N)c2c1CSC(C)(C)C2	inconclusive: 32.6 µM [activator, single point]
O=C(C1CCC(CNc2c(N3CCCCC3)c(=O)c2=O)CC1)N1CCc2ccccc2C1 (centres undefined)	inactive

Quoted at random: two entries already listed
Structure (SMILES)	Potency
O=S(=O)(Nc1cccc2ccccc12)c1ccccc1	inactive
S=C(Nc1ccc(Nc2ccccc2)cc1)NC1CCCCCC1	inconclusive: 29.1 µM [falling, single point]

— PubChem BioAssay AID504648 (National Center for Advancing Translational Sciences (NCATS), 2011)
